Drawing on article PMC8724216, “Biochemical and structural characterization of beta-carbonic anhydrase from the parasite Trichomonas vaginalis” (Journal of Molecular Medicine (Berlin, Germany), 2021), this text covers Ki for two compounds.

This assay has as its target T1, TvaCA2 (Trichomonas vaginalis, UniProt A2DLG4).
T1 construct: gene TVAG_268150; recombinant in E. coli BL21 Star (DE3), pBVboostFG; 6xHis-tag removed by thrombin; 185 residues; homodimer, zinc
T1 sequence (A2DLG4 1-184): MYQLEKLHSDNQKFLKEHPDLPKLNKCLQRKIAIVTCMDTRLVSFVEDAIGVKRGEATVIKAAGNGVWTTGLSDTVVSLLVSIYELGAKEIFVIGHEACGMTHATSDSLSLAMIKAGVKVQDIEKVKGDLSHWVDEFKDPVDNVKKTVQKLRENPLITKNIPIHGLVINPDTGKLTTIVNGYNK
In words: stopped-flow CO2 hydration, phenol red. The assay is classed as biochemical. The note with it: read-out: TvaCA2 β.

Each structure is given as a SMILES string. pKi: −log10 of the molar value.

For `CC(=O)Nc1nnc(S(N)(=O)=O)s1` [AAZ, acetazolamide], the pKi is 6.65.

`CCN[C@H]1C[C@H](C)S(=O)(=O)c2sc(S(N)(=O)=O)cc21` [DZA]: the pKi was 5.77.
